Values from PubChem BioAssay AID504804 (Drosophila RNAi Screening Center, 2011).
In all, the deposit lists about 19,000 reagents; below is a random part of those with a known target gene and a result. Of all reagents, 47 (0.25%) were called active. 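Signals are raw, not normalised; exact z-scores behind calls not deposited; actives needed confirmation, so some wells reaching 2 SD are inactive.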 Entries without a mark were called inactive.

Screen: 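dsRNAs that improve Kc cell survival under doxorubicin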 (primary screen)
Cell system: Drosophila Kc cells
Reagent: long dsRNA against Drosophila genes, 0.5 µg dsRNA per well
Time to read-out: 96 h (48 h knock-down, then 48 h drug)
Conditions: doxorubicin 5 µg/ml for 48 h, added 48 h after dsRNA
Detection: 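Viability measured as cellular ATP by luminescence after 48 h knock-down then 48 h doxorubicin at 5 µg/ml; unnormalised plate counts for each replicate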
Direction: raw ATP luminescence: higher = more viable cells, protection from doxorubicin
Hit rule: 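z-score of 2 or more over plate mean in both duplicates, retained only when retests and separate dsRNAs confirm the protection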

After knock-down of mei-S332 [DRSC04704], the record shows raw ATP luminescence, replicate 1 = 75007; raw ATP luminescence, replicate 2 = 61660.
Depletion of stum [DRSC04268] resulted in: raw ATP luminescence, replicate 1 = 56863; raw ATP luminescence, replicate 2 = 63543.
Depletion of stum [DRSC04270] gave: raw ATP luminescence, replicate 1 = 55340; raw ATP luminescence, replicate 2 = 52350.
For MBD-R2 [DRSC14180], the entry reads raw ATP luminescence, replicate 1 = 46700; raw ATP luminescence, replicate 2 = 37903.
Depletion of amx [DRSC18736] gave: raw ATP luminescence, replicate 1 = 2.93e5; raw ATP luminescence, replicate 2 = 3.22e5.
Psf3 [DRSC18216] scored raw ATP luminescence, replicate 1 = 3.42e5; raw ATP luminescence, replicate 2 = 3.15e5.
Depletion of CG31693 [DRSC03674] resulted in: raw ATP luminescence, replicate 1 = 72360; raw ATP luminescence, replicate 2 = 61457.
Depletion of CG32856 [DRSC13124] gave: raw ATP luminescence, replicate 1 = 2.34e5; raw ATP luminescence, replicate 2 = 1.98e5.
For Abca3 [DRSC20546] the deposit lists raw ATP luminescence, replicate 1 = 3.34e5; raw ATP luminescence, replicate 2 = 2.98e5.
CG15322 [DRSC20680] scored raw ATP luminescence, replicate 1 = 2.09e5; raw ATP luminescence, replicate 2 = 1.88e5.
Against Hasp [DRSC02022] the deposit lists raw ATP luminescence, replicate 1 = 89223; raw ATP luminescence, replicate 2 = 55693.
Against CG1738 [DRSC19772], the values are raw ATP luminescence, replicate 1 = 2.88e5; raw ATP luminescence, replicate 2 = 3.01e5.
